Experimental data taken from PMC8593239.
No constants are given. Whether binding was seen depends on the method and setting. Some results given as binding are weak or reduced against the parent protein; the word gives no strength.

The chains behind the UniProt entries cited, without tags or fusion partners. Where a name states a change or a piece, a line headed by the entry shows the natural chain unless it says otherwise. Residues count along the entry.
UniProt P06756: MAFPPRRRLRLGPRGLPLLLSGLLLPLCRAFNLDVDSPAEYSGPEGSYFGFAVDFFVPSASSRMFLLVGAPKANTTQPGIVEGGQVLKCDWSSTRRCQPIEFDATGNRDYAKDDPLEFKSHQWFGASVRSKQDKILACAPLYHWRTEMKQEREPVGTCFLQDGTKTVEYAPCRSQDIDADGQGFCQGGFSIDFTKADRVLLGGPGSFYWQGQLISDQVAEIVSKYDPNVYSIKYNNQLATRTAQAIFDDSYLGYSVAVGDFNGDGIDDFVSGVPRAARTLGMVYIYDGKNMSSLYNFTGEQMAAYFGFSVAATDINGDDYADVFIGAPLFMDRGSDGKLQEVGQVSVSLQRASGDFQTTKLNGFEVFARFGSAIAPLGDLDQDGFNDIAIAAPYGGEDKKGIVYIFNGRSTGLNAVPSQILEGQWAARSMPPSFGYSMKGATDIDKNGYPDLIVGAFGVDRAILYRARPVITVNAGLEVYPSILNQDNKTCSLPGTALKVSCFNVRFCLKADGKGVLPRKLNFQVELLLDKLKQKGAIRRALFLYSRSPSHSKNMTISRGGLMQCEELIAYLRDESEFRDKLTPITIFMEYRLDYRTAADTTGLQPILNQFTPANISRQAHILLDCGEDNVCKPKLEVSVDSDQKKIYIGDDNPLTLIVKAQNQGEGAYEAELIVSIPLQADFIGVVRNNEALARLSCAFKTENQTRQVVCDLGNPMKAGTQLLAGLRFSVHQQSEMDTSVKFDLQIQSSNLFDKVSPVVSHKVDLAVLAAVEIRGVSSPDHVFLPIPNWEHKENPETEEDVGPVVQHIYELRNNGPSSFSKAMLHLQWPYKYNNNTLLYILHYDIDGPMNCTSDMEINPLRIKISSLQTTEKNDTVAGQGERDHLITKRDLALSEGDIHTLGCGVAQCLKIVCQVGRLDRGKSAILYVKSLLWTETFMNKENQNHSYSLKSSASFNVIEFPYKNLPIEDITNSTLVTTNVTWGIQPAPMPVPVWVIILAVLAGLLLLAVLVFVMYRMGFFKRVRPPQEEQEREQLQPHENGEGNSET
UniProt P05106: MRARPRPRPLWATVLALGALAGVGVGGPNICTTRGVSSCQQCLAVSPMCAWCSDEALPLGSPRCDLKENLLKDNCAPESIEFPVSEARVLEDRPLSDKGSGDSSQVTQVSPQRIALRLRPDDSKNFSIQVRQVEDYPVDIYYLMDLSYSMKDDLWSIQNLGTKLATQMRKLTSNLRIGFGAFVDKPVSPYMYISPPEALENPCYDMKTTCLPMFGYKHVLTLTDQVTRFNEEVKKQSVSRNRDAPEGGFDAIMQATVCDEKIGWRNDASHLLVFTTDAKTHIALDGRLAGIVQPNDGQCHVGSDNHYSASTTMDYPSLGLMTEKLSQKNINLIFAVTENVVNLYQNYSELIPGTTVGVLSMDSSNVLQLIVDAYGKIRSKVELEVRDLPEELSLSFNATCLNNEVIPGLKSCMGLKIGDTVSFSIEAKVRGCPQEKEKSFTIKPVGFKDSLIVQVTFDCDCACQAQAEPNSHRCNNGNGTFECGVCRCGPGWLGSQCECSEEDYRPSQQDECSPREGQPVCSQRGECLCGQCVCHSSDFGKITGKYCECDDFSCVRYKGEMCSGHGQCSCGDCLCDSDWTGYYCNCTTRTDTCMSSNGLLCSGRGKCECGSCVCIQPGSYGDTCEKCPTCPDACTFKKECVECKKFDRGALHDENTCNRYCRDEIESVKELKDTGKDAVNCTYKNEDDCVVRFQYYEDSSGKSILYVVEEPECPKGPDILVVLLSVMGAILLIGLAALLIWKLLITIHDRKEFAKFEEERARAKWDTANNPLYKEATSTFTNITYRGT
UniProt P18084: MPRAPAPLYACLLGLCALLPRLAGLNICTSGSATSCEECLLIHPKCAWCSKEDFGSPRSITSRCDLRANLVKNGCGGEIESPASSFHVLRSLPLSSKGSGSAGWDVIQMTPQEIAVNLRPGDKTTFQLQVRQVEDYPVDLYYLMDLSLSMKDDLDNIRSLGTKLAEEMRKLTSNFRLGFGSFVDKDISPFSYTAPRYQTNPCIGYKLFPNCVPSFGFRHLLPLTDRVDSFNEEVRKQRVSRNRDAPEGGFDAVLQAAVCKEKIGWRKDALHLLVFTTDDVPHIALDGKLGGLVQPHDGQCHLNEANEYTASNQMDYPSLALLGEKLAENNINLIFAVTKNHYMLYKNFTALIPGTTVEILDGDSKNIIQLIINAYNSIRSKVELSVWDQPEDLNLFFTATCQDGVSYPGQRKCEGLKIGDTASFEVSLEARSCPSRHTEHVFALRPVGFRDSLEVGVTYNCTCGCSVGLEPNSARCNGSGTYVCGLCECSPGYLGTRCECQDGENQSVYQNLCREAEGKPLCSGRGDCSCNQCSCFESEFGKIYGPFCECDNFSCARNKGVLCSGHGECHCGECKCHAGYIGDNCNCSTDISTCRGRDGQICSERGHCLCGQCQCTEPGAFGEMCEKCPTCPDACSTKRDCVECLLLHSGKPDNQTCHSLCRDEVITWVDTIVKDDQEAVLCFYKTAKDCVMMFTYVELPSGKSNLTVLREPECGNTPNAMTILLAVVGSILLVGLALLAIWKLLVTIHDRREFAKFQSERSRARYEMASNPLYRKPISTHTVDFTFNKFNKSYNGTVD
UniProt Q8WWA0, residues 19-298: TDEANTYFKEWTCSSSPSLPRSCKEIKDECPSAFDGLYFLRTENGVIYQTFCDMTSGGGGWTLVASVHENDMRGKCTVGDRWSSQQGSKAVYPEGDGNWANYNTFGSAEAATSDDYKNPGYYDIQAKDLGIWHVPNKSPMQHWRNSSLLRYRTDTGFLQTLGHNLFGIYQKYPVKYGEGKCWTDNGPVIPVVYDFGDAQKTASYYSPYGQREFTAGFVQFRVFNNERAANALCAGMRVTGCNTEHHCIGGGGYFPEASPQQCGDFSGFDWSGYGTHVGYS

Columns and labels:
[1] = target: human integrin αvβ3 on THP1-derived macrophages (human (endogenous in THP1)) (UniProt P06756+P05106); test: flow cytometry on cells; THP1 cells induced by 100 ng/ml PMA for 48 h, pretreated with IgG isotype or neutralizing antibodies against human integrin αvβ3 or αvβ5, then incubated with Flag-tagged omentin-1; detected by PE-labeled antibody against the flag tag; n = 3; only the binder purified
[2] = target: human integrin αvβ5 on THP1-derived macrophages (human (endogenous in THP1)) (UniProt P06756+P18084); test: as above

flag-tagged omentin-1 (from UniProt Q8WWA0 19-298)
binding [1]: binds
binding [2]: binds
